Data from patent US11730819B2 (priority 2016, dated 2023).
Strings that start with PEPTIDE1 are HELM notation: dots part the residues, brackets hold end groups and non-standard residues.

Test: general procedure: Fmoc solid-phase peptide synthesis
Settings: conjugation step

Question: For “PEPTIDE1{[MMAE-PABC-Cit-Val-trz-PYA].[bAla].[Sar].[Sar].[Sar].[Sar].[Sar].[Sar].[Sar].[Sar].[Sar].[Sar].A.[DapMe].[dA].N.E.[1Nal].[dA].C.E.D.F.Y.D.[tBuGly].[DapMe].[am]}|CHEM1{[TBMB]}$PEPTIDE1,CHEM1,14:R3-1:R1|PEPTIDE1,CHEM1,20:R3-1:R2|PEPTIDE1,CHEM1,27:R3-1:R3$$$V2.0”, which conjugation yield is on record?
Answer: Its conjugation yield is 35%.

Question: Which conjugation yield does the source give for “PEPTIDE1{[MMAE-PABC-Cit-Val-glutaryl].[bAla].[Sar].[Sar].[Sar].[Sar].[Sar].[Sar].[Sar].[Sar].[Sar].[Sar].A.[DapMe].[dA].N.E.[1Nal].[dA].C.E.D.F.Y.D.[tBuGly].[DapMe].[am]}|CHEM1{[TBMB]}$PEPTIDE1,CHEM1,14:R3-1:R1|PEPTIDE1,CHEM1,20:R3-1:R2|PEPTIDE1,CHEM1,27:R3-1:R3$$$V2.0” here?
Answer: Its conjugation yield is 29%.

Question: Which conjugation yield does the source give for “PEPTIDE1{[MMAE-PABC-Cit-Val-trz-PYA].A.[Dap].[dA].N.E.[1Nal].[dA].C.E.D.F.Y.D.[tBuGly].[Dap].[am]}|CHEM1{[TBMB]}$PEPTIDE1,CHEM1,3:R3-1:R1|PEPTIDE1,CHEM1,9:R3-1:R2|PEPTIDE1,CHEM1,16:R3-1:R3$$$V2.0” here?
Answer: The conjugation yield was 41.02%.

Question: For “PEPTIDE1{[MMAE-PABC-Cit-Val-trz-PYA].A.[DapMe].[dA].N.E.[1Nal].[dA].C.E.D.F.Y.D.[tBuGly].[DapMe].[am]}|CHEM1{[TBMB]}$PEPTIDE1,CHEM1,3:R3-1:R1|PEPTIDE1,CHEM1,9:R3-1:R2|PEPTIDE1,CHEM1,16:R3-1:R3$$$V2.0”, which conjugation yield is on record?
Answer: Its conjugation yield is 42%.

Question: Which conjugation yield does the source give for “PEPTIDE1{[MMAE-PABC-Cit-Val-trz-PYA].[bAla].[Sar].[Sar].[Sar].[Sar].[Sar].[Sar].[Sar].[Sar].[Sar].[Sar].A.[Dap].[dA].N.E.[1Nal].[dA].C.E.D.F.Y.D.[tBuGly].[Dap].[am]}|CHEM1{[TBMB]}$PEPTIDE1,CHEM1,14:R3-1:R1|PEPTIDE1,CHEM1,20:R3-1:R2|PEPTIDE1,CHEM1,27:R3-1:R3$$$V2.0” here?
Answer: The conjugation yield was 54.64%.

Same assay, conditions: cyclisation step

Question: Which “crude purity (method not given)” value does the source give for “Ac-A(Dap)(D-Ala)NE(1Nal)(D-Ala)CEDFFD(tBuGly)(Dap)” here?
Answer: Its value is 95%.

Question: With “Ac-A(Dap(Me))(D-Ala)NE(1Nal)(D-Ala)CEDFYD(tBuGly)(Dap(Me))” as the substance, how does the “crude purity (method not given)” value read?
Answer: Its value is 96%.

Question: Which “crude purity (method not given)” value does the source give for “(PYA)-(B-Ala)-Sar10-A(Dap)(D-Ala)NE(1Nal)(D-Ala)CEDFYD(tBuGly)(Dap)” here?
Answer: Its value is 60%.

Question: With “Ac-A(Dap)(D-Ala)NE(1Nal)(D-Ala)CEDFYD(tBuGly)(Dap)” as the substance, how does the “crude purity (method not given)” value read?
Answer: Its value is 94%.
